# Source: article PMC7524730
# Chains of the proteins cited; added tags and fusions are not shown. Lines headed by an entry give the natural chain unless they say otherwise; changes in a name come on top.
# UniProt O14744: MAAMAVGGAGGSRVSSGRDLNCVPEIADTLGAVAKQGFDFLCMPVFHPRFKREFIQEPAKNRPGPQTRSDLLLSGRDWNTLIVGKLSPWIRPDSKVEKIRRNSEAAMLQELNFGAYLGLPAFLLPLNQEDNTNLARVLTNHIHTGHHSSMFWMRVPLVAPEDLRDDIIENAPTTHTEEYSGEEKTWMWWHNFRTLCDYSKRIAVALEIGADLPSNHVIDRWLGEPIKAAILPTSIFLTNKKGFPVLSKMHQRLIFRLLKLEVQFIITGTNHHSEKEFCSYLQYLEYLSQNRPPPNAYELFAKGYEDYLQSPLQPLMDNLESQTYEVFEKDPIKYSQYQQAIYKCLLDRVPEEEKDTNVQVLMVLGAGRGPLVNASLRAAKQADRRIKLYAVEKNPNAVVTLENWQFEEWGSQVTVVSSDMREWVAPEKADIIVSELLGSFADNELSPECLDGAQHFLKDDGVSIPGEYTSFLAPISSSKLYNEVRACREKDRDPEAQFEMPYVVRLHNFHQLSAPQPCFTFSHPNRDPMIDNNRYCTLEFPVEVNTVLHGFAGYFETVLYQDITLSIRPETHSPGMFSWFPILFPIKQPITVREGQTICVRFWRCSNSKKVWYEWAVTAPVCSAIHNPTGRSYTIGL
# UniProt P28482: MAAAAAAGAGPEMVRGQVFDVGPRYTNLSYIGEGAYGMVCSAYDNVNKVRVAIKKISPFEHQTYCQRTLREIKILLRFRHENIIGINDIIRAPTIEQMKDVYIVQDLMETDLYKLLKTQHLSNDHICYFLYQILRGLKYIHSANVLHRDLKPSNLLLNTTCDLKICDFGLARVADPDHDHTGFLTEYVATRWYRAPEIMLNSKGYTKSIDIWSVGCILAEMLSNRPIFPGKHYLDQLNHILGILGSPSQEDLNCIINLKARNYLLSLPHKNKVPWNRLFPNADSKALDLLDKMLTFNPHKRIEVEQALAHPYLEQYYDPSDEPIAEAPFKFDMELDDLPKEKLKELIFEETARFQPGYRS
# Residue numbers refer to the chain shown, from its start. Results are given in words; binding and its absence hold for the method and conditions named. In cells and extracts the contact can be indirect. Some results given as binding are weak or reduced against the parent protein; the word gives no strength. For part of these data: Tags and fused reporters may be left off the sequences shown.
# T1: Flag-tagged LSH amino acids 227-589 (human) (UniProt Q9NRZ9)
# T1 sequence: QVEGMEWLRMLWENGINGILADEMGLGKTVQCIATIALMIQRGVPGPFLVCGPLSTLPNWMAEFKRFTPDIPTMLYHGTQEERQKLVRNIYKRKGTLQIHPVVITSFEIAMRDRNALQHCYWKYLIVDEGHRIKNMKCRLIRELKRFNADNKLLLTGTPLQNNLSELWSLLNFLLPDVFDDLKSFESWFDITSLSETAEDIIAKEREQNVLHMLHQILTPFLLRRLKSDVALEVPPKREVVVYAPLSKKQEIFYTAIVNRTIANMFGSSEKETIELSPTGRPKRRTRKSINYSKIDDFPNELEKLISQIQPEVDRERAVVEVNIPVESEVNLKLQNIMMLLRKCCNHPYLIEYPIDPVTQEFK
# T2: GST-LSH fusion protein (human) (UniProt Q9NRZ9)
# T2 sequence: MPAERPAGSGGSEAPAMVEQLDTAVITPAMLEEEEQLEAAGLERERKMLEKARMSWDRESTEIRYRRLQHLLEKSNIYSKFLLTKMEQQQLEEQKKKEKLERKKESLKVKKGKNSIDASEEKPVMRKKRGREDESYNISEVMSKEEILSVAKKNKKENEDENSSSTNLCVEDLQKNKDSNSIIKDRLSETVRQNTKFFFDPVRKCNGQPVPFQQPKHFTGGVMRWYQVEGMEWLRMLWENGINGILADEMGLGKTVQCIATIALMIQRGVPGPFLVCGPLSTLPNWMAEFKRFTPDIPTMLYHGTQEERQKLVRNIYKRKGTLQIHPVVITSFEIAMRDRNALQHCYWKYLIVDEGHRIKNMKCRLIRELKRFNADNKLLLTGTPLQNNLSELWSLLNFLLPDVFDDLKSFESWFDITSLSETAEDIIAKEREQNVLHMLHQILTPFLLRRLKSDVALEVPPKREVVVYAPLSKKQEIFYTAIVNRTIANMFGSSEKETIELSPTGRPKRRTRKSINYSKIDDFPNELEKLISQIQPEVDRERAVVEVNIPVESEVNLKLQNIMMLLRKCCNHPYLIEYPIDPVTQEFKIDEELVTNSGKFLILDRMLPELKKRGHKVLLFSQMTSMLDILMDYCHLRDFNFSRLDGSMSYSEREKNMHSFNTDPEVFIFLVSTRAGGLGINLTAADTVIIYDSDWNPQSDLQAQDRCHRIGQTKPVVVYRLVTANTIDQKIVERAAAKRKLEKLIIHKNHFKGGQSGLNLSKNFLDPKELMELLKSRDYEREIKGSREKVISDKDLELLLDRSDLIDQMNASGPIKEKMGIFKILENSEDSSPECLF
# T3: Lymphoid-specific helicase (LSH), expressed in 293T cells (human) (UniProt Q9NRZ9)
# T3 sequence: T2 sequence
# T4: LSH, endogenous in A549 cells (human (endogenous in A549)) (UniProt Q9NRZ9)
# T4 sequence: T2 sequence
# T5: LSH R309A mutant, stably expressed in PC9 cells (human) (UniProt Q9NRZ9)
# T5 sequence: T2 sequence with R309A
# T6: LSH S503A mutant, stably expressed in PC9 cells (human) (UniProt Q9NRZ9)
# T6 sequence: T2 sequence with S503A
# T7: LSH WT, stably expressed in PC9 cells (human) (UniProt Q9NRZ9)
# T7 sequence: T2 sequence
# B1: Flag-tagged LSH amino acids 227-589 (domain or fragment, UniProt Q9NRZ9 227-589)
# chain: T1 sequence
# B2: minichromosome maintenance 3 (MCM3) (protein, UniProt P25205 1-808)
# chain: MAGTVVLDDVELREAQRDYLDFLDDEEDQGIYQSKVRELISDNQYRLIVNVNDLRRKNEKRANRLLNNAFEELVAFQRALKDFVASIDATYAKQYEEFYVGLEGSFGSKHVSPRTLTSCFLSCVVCVEGIVTKCSLVRPKVVRSVHYCPATKKTIERRYSDLTTLVAFPSSSVYPTKDEENNPLETEYGLSVYKDHQTITIQEMPEKAPAGQLPRSVDVILDDDLVDKAKPGDRVQVVGTYRCLPGKKGGYTSGTFRTVLIACNVKQMSKDAQPSFSAEDIAKIKKFSKTRSKDIFDQLAKSLAPSIHGHDYVKKAILCLLLGGVERDLENGSHIRGDINILLIGDPSVAKSQLLRYVLCTAPRAIPTTGRGSSGVGLTAAVTTDQETGERRLEAGAMVLADRGVVCIDEFDKMSDMDRTAIHEVMEQGRVTIAKAGIHARLNARCSVLAAANPVYGRYDQYKTPMENIGLQDSLLSRFDLLFIMLDQMDPEQDREISDHVLRMHRYRAPGEQDGDAMPLGSAVDILATDDPNFSQEDQQDTQIYEKHDNLLHGTKKKKEKMVSAAFMKKYIHVAKIIKPVLTQESATYIAEEYSRLRSQDSMSSDTARTSPVTARTLETLIRLATAHAKARMSKTVDLQDAEEAVELVQYAYFKKVLEKEKKRKKRSEDESETEDEEEKSQEDQEQKRKRRKTRQPDAKDGDSYDPYDFSDTEEEMPQVHTPKTADSQETKESQKVELSESRLKAFKVALLDVFREAHAQSIGMNRLTESINRDSEEPFSSVEIQAALSKMQDDNQVMVSEGIIFLI
# Tests used:
# [1] = biological target: T1, Flag-tagged LSH amino acids 227-589 (human); assay: co-IP; Flag-tagged LSH and HA-tagged PRMT5 full-length or truncation constructs cotransfected into 293T cells; IP then IB
# [2] = biological target: T2, GST-LSH fusion protein (human); assay: pull-down; GST pull-down; GST-LSH expressed in E. coli as bait, HA-tagged PRMT5 expressed in 293T cells; only the target purified
# [3] = biological target: T3, Lymphoid-specific helicase (LSH), expressed in 293T cells (human); assay: co-IP; exogenous LSH and PRMT5 in H358 and 293T cells; LSH or PRMT5 immunoprecipitated, IB with anti-PRMT5 or anti-LSH; Dynabeads Protein G, 4 °C
# [4] = biological target: T3, Lymphoid-specific helicase (LSH), expressed in 293T cells (human); assay: co-IP; IP with an anti-LSH antibody from 293T cells ectopically expressing LSH, IB with the indicated antibodies; IgG as isotype control; antibody overnight at 4 °C, Dynabeads Protein G
# [5] = biological target: T4, LSH, endogenous in A549 cells (human (endogenous in A549)); assay: co-IP; endogenous LSH and PRMT5 in A549 cells; LSH or PRMT5 immunoprecipitated, IB with anti-PRMT5 or anti-LSH; Dynabeads Protein G, 4 °C
# [6] = biological target: T3, Lymphoid-specific helicase (LSH), expressed in 293T cells (human); assay: co-IP; Flag-tagged LSH and HA-tagged PRMT5 full-length or truncation constructs cotransfected into 293T cells; IP then IB
# [7] = biological target: T5, LSH R309A mutant, stably expressed in PC9 cells (human); assay: co-IP; PC9 cells stably expressing Vector, LSH WT, R309A or S503A; IP then IB for PRMT5 and LSH
# [8] = biological target: T6, LSH S503A mutant, stably expressed in PC9 cells (human); assay: as above
# [9] = biological target: T7, LSH WT, stably expressed in PC9 cells (human); assay: as above
# [10] = biological target: HA-tagged PRMT5 amino acids 1-324 (human) (UniProt O14744); assay: co-IP; Flag-tagged LSH and HA-tagged PRMT5 full-length or truncation constructs cotransfected into 293T cells; IP then IB
molecule,measurement,setting,value
HA-tagged full-length PRMT5 (from UniProt O14744 1-637) (enzyme),binding,[1],binds
same,binding,[2],binds
same,binding,[3],binds
MAPK1 (from UniProt P28482 1-360) (enzyme),binding,[4],binds
"PRMT5, endogenous in A549 cells (from UniProt O14744 1-637) (enzyme)",binding,[5],binds
HA-tagged PRMT5 amino acids 1-324 (from UniProt O14744 1-324) (domain or fragment),binding,[6],binds
"PRMT5, in PC9 cells (from UniProt O14744 1-637) (enzyme)",binding,[7],binds
same,binding,[8],binds
same,binding,[9],binds
"Protein arginine methyltransferase 5 (PRMT5), in 293T cells expressing LSH (from UniProt O14744 1-637) (enzyme)",binding,[4],binds
B1,binding,[10],binds
B2,binding,[4],binds
